Data from the supplement of paper PMC10331698.
± gives the standard deviation of the averaged measurements. Most values lie at the level of the controls, where differences are scatter.

What was measured:
Experiment in all cases: level (log10 ratio to DMSO vehicle control); higher = higher biomarker level / cell amount than vehicle control
[1] = compound: OCCCC(F)(F)C(F)(F)C(F)(F)C(F)(F)C(F)(F)C(F)(F)C(F)(F)C(F)(F)F [3-(Perfluorooctyl)propanol] (in DMSO); conditions: 2200 nM
Procedure: (§1)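 BioMAP Diversity Plus panel of 12 human primary cell co-culture systems (3C, 4H, LPS, SAg, BT, BF4T, BE3C, CASM3C, HDF3CGF, KF3CT, MyoF, Mphg). Compounds were added 1 h before stimulation and left for 24 h (MyoF 48 h; BT 72 h for soluble read-outs or 6 d for IgG). Biomarkers were read by ELISA, cytotoxicity by SRB, PBMC viability and proliferation by Alamar Blue. Each well value was divided by the mean of 8 DMSO control wells on the same plate and log10 transformed; duplicate blinded samples were tested at 4 concentrations.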

[2] = compound: FC(F)(F)C(F)(F)CNCC(F)(F)C(F)(F)F [Bis(1H,1H-perfluoropropyl)amine] (in DMSO); conditions: 2200 nM
Procedure: as §1

[3] = compound: O=S(=O)(O)C(F)(F)C(F)(F)C(F)(F)C(F)(F)F [Perfluorobutanesulfonic acid] (in DMSO)
Procedure: as §1

[4] = compound: OCC(F)(F)OC(F)(F)C(F)(F)OC(F)(F)CO [1H,1H,8H,8H-Perfluoro-3,6-dioxaoctane-1,8-diol] (in DMSO); conditions: 2200 nM
Procedure: as §1

[5] = compound: OCC(F)(F)C(F)(F)C(F)(F)C(F)F [1H,1H,5H-Perfluoropentanol] (in DMSO); conditions: 2200 nM
Procedure: as §1

Hexafluoroglutaric acid = compound: O=C(O)C(F)(F)C(F)(F)C(F)(F)C(=O)O [Hexafluoroglutaric acid] (in DMSO)
Procedure: as §1

[6] = compound: OCC(F)(F)C(F)(F)C(F)(F)C(F)(F)C(F)(F)C(F)(F)CO [1H,1H,8H,8H-Perfluorooctane-1,8-diol] (in DMSO); conditions: 2200 nM
Procedure: as §1

Perfluorohexanoic acid = compound: O=C(O)C(F)(F)C(F)(F)C(F)(F)C(F)(F)C(F)(F)F [Perfluorohexanoic acid] (in DMSO)
Procedure: as §1

[7] = compound: CNS(=O)(=O)C(F)(F)C(F)(F)C(F)(F)C(F)(F)C(F)(F)C(F)(F)C(F)(F)C(F)(F)F [N-Methylperfluorooctanesulfonamide] (in DMSO); conditions: 2200 nM
Procedure: as §1

[8] = compound: O=C(O)CCC(F)(F)C(F)(F)C(F)(F)F [3:3 Fluorotelomer carboxylic acid] (in DMSO); conditions: 2200 nM
Procedure: as §1

[9] = compound: C=C(C)C(=O)OCCC(F)(F)C(F)(F)C(F)(F)C(F)(F)C(F)(F)C(F)(F)F [6:2 Fluorotelomer methacrylate] (in DMSO); conditions: 2200 nM
Procedure: as §1

[10] = compound: O=C(O)C(F)(F)C(F)(F)C(F)(F)OC(F)(C(F)(F)F)C(F)(F)F [Perfluoro-4-isopropoxybutanoic acid] (in DMSO); conditions: 2200 nM
Procedure: as §1

[11] = compound: FC(F)(F)COC(OCC(F)(F)F)OCC(F)(F)F [tris(Trifluoroethoxy)methane] (in DMSO); conditions: 2200 nM
Procedure: as §1

[12] = compound: FC(F)(F)C(F)(F)C(F)(F)C(F)(F)CCI [1H,1H,2H,2H-Perfluorohexyl iodide] (in DMSO); conditions: 2200 nM
Procedure: as §1

[13] = compound: OCC(F)(F)C(F)(F)C(F)(F)C(F)(F)C(F)(F)C(F)(F)F [6:1 Fluorotelomer alcohol] (in DMSO); conditions: 2200 nM
Procedure: as §1

[14] = compound: O=C(O)C(F)(OC(F)(F)C(F)(F)C(F)(F)F)C(F)(F)F [Ammonium perfluoro-2-methyl-3-oxahexanoate] (in Water)
Procedure: as §1

[15] = compound: O=C(O)C(F)(OC(F)(F)C(F)(OC(F)(F)C(F)(OC(F)(F)C(F)(F)C(F)(F)F)C(F)(F)F)C(F)(F)F)C(F)(F)F [Perfluoro-(2,5,8-trimethyl-3,6,9-trioxadodecanoic)acid] (in DMSO); conditions: 370 nM
Procedure: as §1

Test System	level (log10) [1]	level (log10) [2]	level (log10) ([3]; 2200 nM)	level (log10) ([3]; 6700 nM)	level (log10) ([3]; 20000 nM)	level (log10) ([3]; 60000 nM)	level (log10) [4]	level (log10) [5]	level (log10) (Hexafluoroglutaric acid; 2200 nM)	level (log10) (Hexafluoroglutaric acid; 6700 nM)	level (log10) (Hexafluoroglutaric acid; 20000 nM)	level (log10) (Hexafluoroglutaric acid; 60000 nM)	level (log10) [6]	level (log10) (Perfluorohexanoic acid; 2200 nM)	level (log10) (Perfluorohexanoic acid; 6700 nM)	level (log10) (Perfluorohexanoic acid; 20000 nM)	level (log10) (Perfluorohexanoic acid; 60000 nM)	level (log10) [7]	level (log10) [8]	level (log10) [9]	level (log10) [10]	level (log10) [11]	level (log10) [12]	level (log10) [13]	level (log10) ([14]; 2200 nM)	level (log10) ([14]; 6700 nM)	level (log10) ([14]; 20000 nM)	level (log10) ([14]; 60000 nM)	level (log10) [15]
KF3CT:IL-1alpha	-0.0375 ± 0.042	-0.0125 ± 0.011	0.0045 ± 0.011	-0.009 ± 0.0042	-0.0085 ± 0.0078	-0.006 ± 0.025	-0.004 ± 0.062	0.0375 ± 0.063	-0.026 ± 0.033	-0.021 ± 0.014	0.012 ± 0.013	-0.0395 ± 0.012	0.022 ± 0.021	0.003 ± 0.028	-0.0045 ± 0.011	-0.0185 ± 0.011	0.008 ± 0.021	0.046 ± 0.017	0.0175 ± 0.059	-0.004 ± 0.0071	0.026 ± 0.021	0.014 ± 0.033	0.028 ± 0.011	0.0095 ± 0.0064	-0.0255 ± 0.0064	-0.001 ± 0.0071	0.011 ± 0.0014	-0.0355 ± 0.044	-0.0105 ± 0.022
KF3CT:MMP-9	-0.008 ± 0.0028	-0.0245 ± 0.013	-0.013 ± 0.027	-0.0115 ± 0.0021	-0.008 ± 0.013	-0.0145 ± 0.005	0.0215 ± 0.0092	-0.0005 ± 0.013	0.006 ± 0.0099	-0.001 ± 0.023	0.015 ± 0.021	0.005 ± 0.0099	0.019 ± 0.02	-0.01 ± 0.018	-0.009 ± 0.014	-0.0055 ± 0.0035	0.017 ± 0.016	0.0195 ± 0.015	0.0105 ± 0.0078	-0.0145 ± 0.036	0.003 ± 0.0099	0.0105 ± 0.00071	-0.002 ± 0.0085	-0.0225 ± 0.015	0.0145 ± 0.023	-0.008 ± 0.011	0.0415 ± 0.026	0.0695 ± 0.0035	-0.0105 ± 0.011
KF3CT:PAI-I	-0.019 ± 0.024	-0.013 ± 0.017	0.008 ± 0.024	-0.014 ± 0.048	0.003 ± 0.0099	-0.007 ± 0.027	0.016 ± 0.018	0.0155 ± 0.043	0 ± 0.017	-0.004 ± 0.0042	-0.0005 ± 0.005	0.0045 ± 0.0092	0.0115 ± 0.011	-0.0125 ± 0.0021	-0.0075 ± 0.00071	-0.0175 ± 0.0035	-0.0085 ± 0.00071	0.064 ± 0.023	0.008 ± 0.031	-0.0375 ± 0.039	-0.008 ± 0.016	0.005 ± 0.0099	-0.003 ± 0.0042	0.0015 ± 0.026	-0.0435 ± 0.047	-0.0455 ± 0.012	-0.0695 ± 0.0078	-0.054 ± 0.02	-0.009
KF3CT:SRB	-0.011 ± 0.0028	0.0065 ± 0.0092	0.007 ± 0.0085	0.002 ± 0.0042	0 ± 0.0014	0 ± 0.0014	0.018 ± 0.03	0.0095 ± 0.0078	0.002 ± 0.011	-0.0055 ± 0.0021	-0.011 ± 0.0057	0.003 ± 0.018	0 ± 0.0099	0.0065 ± 0.021	0.0045 ± 0.0035	-0.012 ± 0.0014	0.0045 ± 0.00071	0.0075 ± 0.0021	0.013 ± 0.023	0.0065 ± 0.021	-0.002 ± 0.021	0.011 ± 0.013	-0.0045 ± 0.013	0.0125 ± 0.022	0.0015 ± 0.005	-0.004	-0.005 ± 0.0014	-0.0015 ± 0.005	0.006 ± 0.014
KF3CT:TIMP-2	-0.0155 ± 0.064	0.0115 ± 0.0035	-0.0085 ± 0.035	-0.0265 ± 0.005	-0.0045 ± 0.029	-0.0135 ± 0.022	0.011 ± 0.017	-0.011 ± 0.0014	-0.013 ± 0.0042	-0.026 ± 0.014	-0.028 ± 0.0042	-0.013 ± 0.011	-0.007 ± 0.061	-0.0165 ± 0.013	0.004 ± 0.016	-0.0125 ± 0.0035	-0.0125 ± 0.0078	-0.011 ± 0.011	0.0065 ± 0.028	0.0035 ± 0.025	0.002 ± 0.0028	0.009 ± 0.014	-0.016 ± 0.0042	-0.015 ± 0.014	0.0075 ± 0.025	-0.0005 ± 0.037	-0.002 ± 0.025	0.022 ± 0.027	-0.0085 ± 0.03
